The values below come from the supplement of paper PMC8728848.

What all share (test): glycan array binding signal (z-score within array); higher = stronger binding
Holding throughout (settings): glycan notation: IUPAC condensed, linker removed

In assay [1] the target is Gal(b1-4)GlcNAc(b1-2)Man(a1-6)[Man(a1-3)]Man(b1-4)GlcNAc(b1-4)GlcNAc. The gist of the method: (§1)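 Glycan array data were curated from 3228 arrays in the Consortium for Functional Glycomics database and kept only where the protein sequence was available. Glycan names were converted to IUPAC-condensed notation, and columns mapping to the same glycan were averaged. The binding signal is a within-array Z-score, averaged across arrays of the same protein sequence at different concentrations or buffers and across linkers. Negative Z-scores can be read as non-binding.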

The target of assay [2] is Gal(b1-4)GlcNAc(b1-2)[Gal(b1-4)GlcNAc(b1-4)]Man(a1-3)[Gal(b1-4)GlcNAc(b1-2)Man(a1-6)]Man(b1-4)GlcNAc(b1-4)GlcNAc. The gist of the method:
as §1

For assay [3], the target named is Gal(b1-4)GlcNAc(b1-2)[Gal(b1-4)GlcNAc(b1-4)]Man(a1-3)[Gal(b1-4)GlcNAc(b1-2)[Gal(b1-4)GlcNAc(b1-6)]Man(a1-6)]Man(b1-4)GlcNAc(b1-4)GlcNAc. The essentials:
as §1

Assay [4] deals with Gal(b1-4)GlcNAc(b1-2)[Gal(b1-4)GlcNAc(b1-4)]Man(a1-3)[GlcNAc(b1-4)][Gal(b1-4)GlcNAc(b1-2)Man(a1-6)]Man(b1-4)GlcNAc(b1-4)GlcNAc. The essentials: as §1
Assay [5] addresses Gal(b1-4)GlcNAc(b1-2)[Gal(b1-4)GlcNAc(b1-4)]Man(a1-3)[GlcNAc(b1-4)][Gal(b1-4)GlcNAc(b1-2)[Gal(b1-4)GlcNAc(b1-6)]Man(a1-6)]Man(b1-4)GlcNAc(b1-4)GlcNAc. The gist of the method:
as §1

Assay [6] concerns the target Gal(b1-4)GlcNAc(b1-2)[Gal(b1-4)GlcNAc(b1-6)]Man(a1-6)[Gal(b1-4)GlcNAc(b1-2)Man(a1-3)]Man(b1-4)GlcNAc(b1-4)GlcNAc. The gist of the method: as §1
The target of assay [7] is Gal(b1-4)GlcNAc(b1-2)[Gal(b1-4)GlcNAc(b1-6)]Man(a1-6)[Gal(b1-4)GlcNAc(b1-2)Man(a1-3)]Man(b1-4)GlcNAc(b1-4)[Fuc(a1-6)]GlcNAc. The essentials: as §1
Assay [8] has as its target Gal(b1-4)GlcNAc(b1-2)[Gal(b1-4)GlcNAc(b1-6)]Man(a1-6)[GlcNAc(b1-4)][Gal(b1-4)GlcNAc(b1-2)Man(a1-3)]Man(b1-4)GlcNAc(b1-4)GlcNAc. The gist of the method:
as §1

Assay [9] deals with Gal(b1-4)GlcNAc(b1-2)[Gal(b1-4)GlcNAc(b1-6)]Man(a1-6)[GlcNAc(b1-4)][Gal(b1-4)GlcNAc(b1-2)[Gal(b1-4)GlcNAc(b1-4)]Man(a1-3)]Man(b1-4)GlcNAc(b1-4)[Fuc(a1-6)]GlcNAc. The essentials:
as §1

Assay [10] has as its target Gal(b1-4)GlcNAc(b1-3)Gal(b1-3)GalNAc. The essentials: as §1
Assay [11] addresses Gal(b1-4)GlcNAc(b1-3)Gal(b1-3)GlcNAc. The gist of the method: as §1
Assay [12] addresses Gal(b1-4)GlcNAc(b1-3)Gal(b1-4)Glc. The gist of the method:
as §1

The target in assay [13] is Gal(b1-4)GlcNAc(b1-3)Gal(b1-4)GlcNAc. The gist of the method:
as §1

The target in assay [14] is Gal(b1-4)GlcNAc(b1-3)Gal(b1-4)GlcNAc(b1-2)Man(a1-3)[Gal(b1-4)GlcNAc(b1-3)Gal(b1-4)GlcNAc(b1-2)Man(a1-6)]Man(b1-4)GlcNAc(b1-4)GlcNAc. The gist of the method:
as §1

For assay [15], the target named is Gal(b1-4)GlcNAc(b1-3)Gal(b1-4)GlcNAc(b1-2)Man(a1-3)[Gal(b1-4)GlcNAc(b1-3)Gal(b1-4)GlcNAc(b1-2)Man(a1-6)]Man(b1-4)GlcNAc(b1-4)[Fuc(a1-6)]GlcNAc. The essentials: as §1
For assay [16], the target named is Gal(b1-4)GlcNAc(b1-3)Gal(b1-4)GlcNAc(b1-2)[Gal(b1-4)GlcNAc(b1-3)Gal(b1-4)GlcNAc(b1-6)]Man(a1-6)[Gal(b1-4)GlcNAc(b1-3)Gal(b1-4)GlcNAc(b1-2)Man(a1-3)]Man(b1-4)GlcNAc(b1-4)GlcNAc. The gist of the method:
as §1

In assay [17] the target is Gal(b1-4)GlcNAc(b1-3)Gal(b1-4)GlcNAc(b1-2)[Gal(b1-4)GlcNAc(b1-3)Gal(b1-4)GlcNAc(b1-6)]Man(a1-6)[Gal(b1-4)GlcNAc(b1-3)Gal(b1-4)GlcNAc(b1-2)Man(a1-3)]Man(b1-4)GlcNAc(b1-4)[Fuc(a1-6)]GlcNAc. The essentials:
as §1

Assay [18] has as its target Gal(b1-4)GlcNAc(b1-3)Gal(b1-4)GlcNAc(b1-3)Gal(b1-4)GlcNAc. The essentials:
as §1

The list shows a part of the results.

B1: PX14343I-pdi-501-30-501 (Parabacteroides distasonis) (protein)
chain: SDQYSTETFWKTKEHASAGIMGCYNALKLWRSLHTMEFDMLTANAMPYNEANGTQAIGKGEHLSTTALIGSLWKNCYVGIGRTNTFIANVGGVDMDESEKAKMVGEAKFLRAFYYLSLVDKFGGVPLIIDAPNADEQAELPRNSKEEVVNQIVKDLEEAAAVLPDTYASSDLGRATKGAALALKARTLLYNSRWAEAAQAAKQVMESGVYQLFNDYRHFFSEDNKYNCEVIFDIEAKLPEYPTDYDQNIWRLNRPAPLKELVDTYLCVDGKTIEESPLYDPTRPYENRDPRLLKSIVCIGYPYLGKTITKEDVATTGFGVKKYTSYEDDVTIPLVERSAFNFILIRYAEVLLTYAEAQNEASGPDQSVYDAINQLRRRPDINMPEVPKGLTKDQMREVIRRERRIELTFEGLYYSDILRWKTAEKENNGMMHNYEGIEVVKRSFNPKRDYLWPIPYNQTVLNPNLEQNPNWD
Regarding B1, the “glycan array binding signal (z-score)” value in assay [1] is 0.204; in assay [2], -0.319; in assay [3], -0.615; in assay [4], -0.449; in assay [5], -0.407; in [6], 0.762. Besides, the “glycan array binding signal (z-score)” value in assay [7] was 1.14; in assay [8] it was -0.439; in assay [9] it was -1; in assay [10] it was -0.11; in assay [11] it was -0.82; in assay [12] it was -0.191. The “glycan array binding signal (z-score)” value in assay [13] was 0.486; in assay [14], 1.61; in assay [15], 1.05; in [16] it was 0.284; in assay [17] it was 0.03; in [18] it was -0.202.
